This passage reports binding results from article PMC11210165.

Results are given in words; binding and its absence hold for the method and conditions named. A result given as binding can be weak or reduced; the word gives no strength.

The experiment has as its target GmHXK2 (soybean hexokinase 2) in the pGBKT7 bait vector (soybean (Glycine max)). Put plainly: two-hybrid; GmHXK2 in pGBKT7 (bait) and GmPMM in pGADT7 (prey) co-transformed into Y2HGold yeast; growth on SD/-Leu/-Trp and SD/-Ade/-His/-Leu/-Trp; empty-vector controls showed no self-activation.

B1: GmPMM (soybean phosphomannomutase) in the pGADT7 prey vector (enzyme, UniProt Q1W376 1-247)
chain: MAARRPGLIALFDVDGTLTAPRKVVTPEMLTFMQELRKVVTVGVVGGSDLIKISEQLGSTVTNDYDYVFSENGLVAHKEGKLIGTQSLKSFLGEEKLKEFINFTLHYIADLDIPIKRGTFIEFRSGMLNVSPIGRNCSQEERDEFEKYDKVHNIRPKMVSVLREKFAHLNLTFSIGGQISFDVFPQGWDKTYCLRYLDGFNEIHFFGDKTYKGGNDHEIYESERTVGHTVTSPDDTVKQCKSLFLEN
As for B1, the binding entry is recorded as “binds”.
